{"source": "paper PMC8384837", "conditions_in_all_cases": "yeast three-hybrid, YBZ-1, SC-Leu-His + 0.5 mM 3-AT, 4 days", "key": {"[1]": {"molecular_target": "T1, PUM1 PUF domain R4-RCG N971R + H972C + Q975G (Homo sapiens) (UniProt Q14671)", "T1 sequence": "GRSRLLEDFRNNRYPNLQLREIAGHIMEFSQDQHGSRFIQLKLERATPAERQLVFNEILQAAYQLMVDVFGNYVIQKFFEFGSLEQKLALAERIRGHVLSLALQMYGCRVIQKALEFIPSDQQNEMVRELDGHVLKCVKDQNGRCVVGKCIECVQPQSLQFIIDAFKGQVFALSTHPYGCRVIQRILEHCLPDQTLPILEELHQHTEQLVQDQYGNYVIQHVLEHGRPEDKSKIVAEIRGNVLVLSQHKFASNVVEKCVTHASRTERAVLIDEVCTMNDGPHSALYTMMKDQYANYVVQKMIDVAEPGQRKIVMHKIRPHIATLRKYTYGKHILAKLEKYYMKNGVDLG"}, "[2]": {"molecular_target": "T2, PUM1 PUF domain R4-RGG N971R + H972G + Q975G (Homo sapiens) (UniProt Q14671)", "T2 sequence": "T1 sequence with C145G"}, "[3]": {"molecular_target": "T3, PUM1 PUF domain R4-RGY N971R + H972G + Q975Y (UniProt Q14671)", "T3 sequence": "T1 sequence with C145G, G148Y"}, "[4]": {"molecular_target": "T4, PUM1 PUF domain R4-RIY N971R + H972I + Q975Y (UniProt Q14671)", "T4 sequence": "T1 sequence with C145I, G148Y"}, "[5]": {"molecular_target": "T5, PUM1 PUF domain R4-RLF N971R + H972L + Q975F (UniProt Q14671)", "T5 sequence": "T1 sequence with C145L, G148F"}, "[6]": {"molecular_target": "T6, PUM1 PUF domain R4-RMG N971R + H972M + Q975G (Homo sapiens) (UniProt Q14671)", "T6 sequence": "T1 sequence with C145M"}, "[7]": {"molecular_target": "T7, PUM1 PUF domain R4-RMI N971R + H972M + Q975I (Homo sapiens) (UniProt Q14671)", "T7 sequence": "T1 sequence with C145M, G148I"}, "[8]": {"molecular_target": "T8, PUM1 PUF domain R4-RMR N971R + H972M + Q975R (UniProt Q14671)", "T8 sequence": "T1 sequence with C145M, G148R"}, "[9]": {"molecular_target": "T9, PUM1 PUF domain R4-RMT N971R + H972M + Q975T (UniProt Q14671)", "T9 sequence": "T1 sequence with C145M, G148T"}, "[10]": {"molecular_target": "T10, PUM1 PUF domain R4-RVY N971R + H972V + Q975Y (UniProt Q14671)", "T10 sequence": "T1 sequence with C145V, G148Y"}, "[11]": {"molecular_target": "T11, PUM1 PUF domain R4-SIG N971S + H972I + Q975G (Homo sapiens) (UniProt Q14671)", "T11 sequence": "T1 sequence with R144S, C145I"}, "[12]": {"molecular_target": "T12, PUM1 PUF domain R4-SLS N971S + H972L + Q975S (Homo sapiens) (UniProt Q14671)", "T12 sequence": "T1 sequence with R144S, C145L, G148S"}, "[13]": {"molecular_target": "T13, PUM1 PUF domain R4-SLY N971S + H972L + Q975Y (UniProt Q14671)", "T13 sequence": "T1 sequence with R144S, C145L, G148Y"}, "[14]": {"molecular_target": "T14, PUM1 PUF domain R4-SML N971S + H972M + Q975L (Homo sapiens) (UniProt Q14671)", "T14 sequence": "T1 sequence with R144S, C145M, G148L"}, "[15]": {"molecular_target": "T15, PUM1 PUF domain R4-SMR N971S + H972M + Q975R (Homo sapiens) (UniProt Q14671)", "T15 sequence": "T1 sequence with R144S, C145M, G148R"}, "[16]": {"molecular_target": "T16, PUM1 PUF domain R4-SNF N971S + H972N + Q975F (Homo sapiens) (UniProt Q14671)", "T16 sequence": "T1 sequence with R144S, C145N, G148F"}, "[17]": {"molecular_target": "T17, PUM1 PUF domain R4-SPT N971S + H972P + Q975T (Homo sapiens) (UniProt Q14671)", "T17 sequence": "T1 sequence with R144S, C145P, G148T"}, "[18]": {"molecular_target": "T18, PUM1 PUF domain R4-SQR N971S + H972Q + Q975R (Homo sapiens) (UniProt Q14671)", "T18 sequence": "T1 sequence with R144S, C145Q, G148R"}, "[19]": {"molecular_target": "T19, PUM1 PUF domain R4-SRC N971S + H972R + Q975C (Homo sapiens) (UniProt Q14671)", "T19 sequence": "T1 sequence with R144S, C145R, G148C"}, "[20]": {"molecular_target": "T20, PUM1 PUF domain R4-SRL N971S + H972R + Q975L (Homo sapiens) (UniProt Q14671)", "T20 sequence": "T1 sequence with R144S, C145R, G148L"}, "[21]": {"molecular_target": "T21, PUM1 PUF domain R4-SRR N971S + H972R + Q975R (Homo sapiens) (UniProt Q14671)", "T21 sequence": "T1 sequence with R144S, C145R, G148R"}, "[22]": {"molecular_target": "T22, PUM1 PUF domain R4-TRA N971T + H972R + Q975A (Homo sapiens) (UniProt Q14671)", "T22 sequence": "T1 sequence with R144T, C145R, G148A"}, "[23]": {"molecular_target": "T23, PUM1 PUF domain R4-TRT N971T + H972R + Q975T (Homo sapiens) (UniProt Q14671)", "T23 sequence": "T1 sequence with R144T, C145R, G148T"}, "[24]": {"molecular_target": "T24, PUM1 PUF domain R4-VGI N971V + H972G + Q975I (Homo sapiens) (UniProt Q14671)", "T24 sequence": "T1 sequence with R144V, C145G, G148I"}, "[25]": {"molecular_target": "T25, PUM1 PUF domain R4-VGL N971V + H972G + Q975L (Homo sapiens) (UniProt Q14671)", "T25 sequence": "T1 sequence with R144V, C145G, G148L"}, "[26]": {"molecular_target": "T26, PUM1 PUF domain R4-VGY N971V + H972G + Q975Y (UniProt Q14671)", "T26 sequence": "T1 sequence with R144V, C145G, G148Y"}, "[27]": {"molecular_target": "T27, PUM1 PUF domain R4-VLY N971V + H972L + Q975Y (UniProt Q14671)", "T27 sequence": "T1 sequence with R144V, C145L, G148Y"}, "[28]": {"molecular_target": "T28, PUM1 PUF domain R4-VRG N971V + H972R + Q975G (Homo sapiens) (UniProt Q14671)", "T28 sequence": "T1 sequence with R144V, C145R"}, "[29]": {"molecular_target": "T29, PUM1 PUF domain R4-VRT N971V + H972R + Q975T (Homo sapiens) (UniProt Q14671)", "T29 sequence": "T1 sequence with R144V, C145R, G148T"}, "[30]": {"molecular_target": "T30, PUM1 PUF domain R4-VSI N971V + H972S + Q975I (Homo sapiens) (UniProt Q14671)", "T30 sequence": "T1 sequence with R144V, C145S, G148I"}, "[31]": {"molecular_target": "T31, PUM1 PUF domain R4-VSL N971V + H972S + Q975L (Homo sapiens) (UniProt Q14671)", "T31 sequence": "T1 sequence with R144V, C145S, G148L"}, "[32]": {"molecular_target": "T32, PUM1 PUF domain R4-YRL N971Y + H972R + Q975L (Homo sapiens) (UniProt Q14671)", "T32 sequence": "T1 sequence with R144Y, C145R, G148L"}}, "note": "Where a chain is given by its changes, count along the chain named. Some of the results follow. For some assays here: At the low end of the ranking, values are background and their order means little."}
{"sequence": "GGCUAGAACUAGUGGAUCCCCCGGCGCCCGGCGGCUCGAGCCCGGGUAAGUGUAUAUAGUCUGCAUGCCGCCGGGCGCCAUGCCUGCAGGUCGACUCUAGAAAACAUG", "values": [{"measurement": "binding signal (log2 enrichment (interaction score))", "setting": "[1]", "result": -1.09}, {"measurement": "binding signal (log2 enrichment (interaction score))", "setting": "[2]", "result": -0.17}, {"measurement": "binding signal (log2 enrichment (interaction score))", "setting": "[3]", "result": "< -6.34"}, {"measurement": "binding signal (log2 enrichment (interaction score))", "setting": "[4]", "result": "< -5.85"}, {"measurement": "binding signal (log2 enrichment (interaction score))", "setting": "[5]", "result": "< -6.65"}, {"measurement": "binding signal (log2 enrichment (interaction score))", "setting": "[6]", "result": -2.84}, {"measurement": "binding signal (log2 enrichment (interaction score))", "setting": "[7]", "result": -4.15}, {"measurement": "binding signal (log2 enrichment (interaction score))", "setting": "[8]", "result": "< -7.09"}, {"measurement": "binding signal (log2 enrichment (interaction score))", "setting": "[9]", "result": "< -5.9"}, {"measurement": "binding signal (log2 enrichment (interaction score))", "setting": "[10]", "result": "< -6.71"}, {"measurement": "binding signal (log2 enrichment (interaction score))", "setting": "[11]", "result": -3.55}, {"measurement": "binding signal (log2 enrichment (interaction score))", "setting": "[12]", "result": -2.75}, {"measurement": "binding signal (log2 enrichment (interaction score))", "setting": "[13]", "result": "< -5.9"}, {"measurement": "binding signal (log2 enrichment (interaction score))", "setting": "[14]", "result": -0.89}, {"measurement": "binding signal (log2 enrichment (interaction score))", "setting": "[15]", "result": -0.77}, {"measurement": "binding signal (log2 enrichment (interaction score))", "setting": "[16]", "result": 0.63}, {"measurement": "binding signal (log2 enrichment (interaction score))", "setting": "[17]", "result": -4.31}, {"measurement": "binding signal (log2 enrichment (interaction score))", "setting": "[18]", "result": 0.12}, {"measurement": "binding signal (log2 enrichment (interaction score))", "setting": "[19]", "result": 0.58}, {"measurement": "binding signal (log2 enrichment (interaction score))", "setting": "[20]", "result": 0.07}, {"measurement": "binding signal (log2 enrichment (interaction score))", "setting": "[21]", "result": 0.62}, {"measurement": "binding signal (log2 enrichment (interaction score))", "setting": "[22]", "result": 0.13}, {"measurement": "binding signal (log2 enrichment (interaction score))", "setting": "[23]", "result": 0.32}, {"measurement": "binding signal (log2 enrichment (interaction score))", "setting": "[24]", "result": -3.68}, {"measurement": "binding signal (log2 enrichment (interaction score))", "setting": "[25]", "result": -3.31}, {"measurement": "binding signal (log2 enrichment (interaction score))", "setting": "[26]", "result": "< -7.27"}, {"measurement": "binding signal (log2 enrichment (interaction score))", "setting": "[27]", "result": "< -7.72"}, {"measurement": "binding signal (log2 enrichment (interaction score))", "setting": "[28]", "result": -1.69}, {"measurement": "binding signal (log2 enrichment (interaction score))", "setting": "[29]", "result": -2.12}, {"measurement": "binding signal (log2 enrichment (interaction score))", "setting": "[30]", "result": -2.88}, {"measurement": "binding signal (log2 enrichment (interaction score))", "setting": "[31]", "result": -4.44}, {"measurement": "binding signal (log2 enrichment (interaction score))", "setting": "[32]", "result": -0.93}]}
